{
  "source": "patent US20160198705A1",
  "about": "“APPLICATION OF BISPHENOL SALT IN PREPARING DISINFECTANT USED FOR STERILIZATION OR FORMALDEHYDE REMOVAL” (NINGBO YUCHEN ENVIROCLEAN TECH CO., LTD., priority 2013, published 2016)",
  "experiment": "Removal of formaldehyde from the air in a sealed stainless steel box, compared with activated carbon",
  "data": [
    {"smiles": "[K+].[K+].[O-]c1ccccc1-c1ccccc1[O-]", "note": "[ortho-bisphenol potassium]", "values": [
      {"measurement": "concentration of formaldehyde in the air", "setting": "time 0 hour (initial), 500 ml of 5% water solution pH=10 or 500 grams activated carbon in sealed box", "value": 10, "unit": "ppm"},
      {"measurement": "concentration of formaldehyde in the air", "setting": "time 1 hour, initial 10 ppm, 500 ml of 5% water solution pH=10 or 500 grams activated carbon", "value": 8.2, "unit": "ppm"},
      {"measurement": "concentration of formaldehyde in the air", "setting": "time 2 hour, initial 10 ppm, 500 ml of 5% water solution pH=10 or 500 grams activated carbon", "value": 6.3, "unit": "ppm"},
      {"measurement": "concentration of formaldehyde in the air", "setting": "time 3 hour, initial 10 ppm, 500 ml of 5% water solution pH=10 or 500 grams activated carbon", "value": 5.1, "unit": "ppm"},
      {"measurement": "concentration of formaldehyde in the air", "setting": "time 4 hour, initial 10 ppm, 500 ml of 5% water solution pH=10 or 500 grams activated carbon", "value": 2.8, "unit": "ppm"},
      {"measurement": "concentration of formaldehyde in the air", "setting": "time 5 hour, initial 10 ppm, 500 ml of 5% water solution pH=10 or 500 grams activated carbon", "value": 1.6, "unit": "ppm"}
    ]}
  ]
}
